Measured data: PubChem BioAssay AID720505 (Drosophila RNAi Screening Center, 2013)
In all, the deposit lists about 20,000 reagents; shown is a random part of those with a known target gene and a result. Over the whole deposit, about 2,100 (10%) got an active call. 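Raw plate signals without normalisation; calls rest on control-based scores that were not deposited; replicate 2 separates called from uncalled poorly.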 The numbers tell different reagents against one gene apart. Not given: the amount of reagent, the time to read-out.

- Assay: 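Knock-downs that reduce calcium influx once internal stores are emptied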 (primary screen)
- Cell system: Drosophila S2R+ cells
- Knock-down reagent: long dsRNA against Drosophila genes
- Treatment: thapsigargin (2 µM) in calcium-free buffer to empty internal stores, then 2 mM calcium added back
- Detection: 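Fluo-4 signal in 384-well plates read on a FLIPR after thapsigargin (2 µM, calcium-free) store depletion and 2 mM calcium add-back; unnormalised mean endpoint per well; screen run twice, selected wells retested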
- Direction: calcium signal and retest calcium signal: higher = more calcium entry after store depletion
- Hit rule: 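Knock-downs counted as hits when calcium entry dropped relative to STIM1 positive and Rho1 negative controls present on each plate; roughly 1500 genes called, with reductions of differing size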
- Meaning of the calls: active = called as lowering calcium entry; inactive = not called

{"gene":"CtsK1 (Cathepsin K1)","dsRNA no.":1,"calcium signal, replicate 1":97.4,"calcium signal, replicate 2":101,"outcome":"inactive"}
{"gene":"Grip71","dsRNA no.":1,"calcium signal, replicate 1":48.7,"calcium signal, replicate 2":84.1,"outcome":"active"}
{"gene":"GstE10 (Glutathione S transferase E10)","dsRNA no.":1,"calcium signal, replicate 1":221,"calcium signal, replicate 2":139,"outcome":"inactive"}
{"gene":"Prtl99C (Protamine-like 99C)","dsRNA no.":1,"calcium signal, replicate 1":204,"calcium signal, replicate 2":157,"outcome":"inactive"}
{"gene":"spag4 (sperm-associated antigen 4)","dsRNA no.":1,"calcium signal, replicate 1":220,"calcium signal, replicate 2":191,"outcome":"inactive"}
{"gene":"CG32588","dsRNA no.":1,"calcium signal, replicate 1":87.1,"calcium signal, replicate 2":197,"outcome":"inactive"}
{"gene":"CG7632","dsRNA no.":1,"calcium signal, replicate 1":65.3,"calcium signal, replicate 2":136,"outcome":"active"}
{"gene":"CG12091","dsRNA no.":1,"calcium signal, replicate 1":92.9,"calcium signal, replicate 2":69.5,"outcome":"inactive"}
{"gene":"CG15097","dsRNA no.":1,"calcium signal, replicate 1":106,"calcium signal, replicate 2":121,"outcome":"inactive"}
{"gene":"Cyp6g2 (Cytochrome P450 6g2)","dsRNA no.":1,"calcium signal, replicate 1":118,"calcium signal, replicate 2":146,"outcome":"inactive"}
{"gene":"CG10562","dsRNA no.":1,"calcium signal, replicate 1":65.9,"calcium signal, replicate 2":81.9,"outcome":"active"}
{"gene":"Prp6 (pre-mRNA processing factor 6)","dsRNA no.":1,"calcium signal, replicate 1":131,"calcium signal, replicate 2":120,"retest calcium signal, replicate 1":131,"retest calcium signal, replicate 2":94.3,"outcome":"inactive"}
{"gene":"Prp6 (pre-mRNA processing factor 6)","dsRNA no.":2,"calcium signal, replicate 1":146,"calcium signal, replicate 2":132,"outcome":"inactive"}
{"gene":"CG33639","dsRNA no.":1,"calcium signal, replicate 1":122,"calcium signal, replicate 2":135,"retest calcium signal, replicate 1":7709,"retest calcium signal, replicate 2":139,"outcome":"inactive"}
{"gene":"CG33639","dsRNA no.":2,"calcium signal, replicate 1":89.5,"calcium signal, replicate 2":92.3,"outcome":"inactive"}
{"gene":"CG13054","dsRNA no.":1,"calcium signal, replicate 1":98.8,"calcium signal, replicate 2":137,"outcome":"inactive"}
{"gene":"CG33758","dsRNA no.":1,"calcium signal, replicate 1":128,"calcium signal, replicate 2":88.9,"outcome":"inactive"}
{"gene":"borr (borealin-related)","dsRNA no.":1,"calcium signal, replicate 1":84,"calcium signal, replicate 2":86.9,"outcome":"inactive"}
{"gene":"CG15643","dsRNA no.":1,"calcium signal, replicate 1":71.3,"calcium signal, replicate 2":116,"outcome":"active"}
{"gene":"CG32037","dsRNA no.":1,"calcium signal, replicate 1":55.1,"calcium signal, replicate 2":94.5,"outcome":"active"}
{"gene":"CG14439","dsRNA no.":1,"calcium signal, replicate 1":171,"calcium signal, replicate 2":164,"outcome":"inactive"}
{"gene":"CG9776","dsRNA no.":1,"calcium signal, replicate 1":85,"calcium signal, replicate 2":128,"outcome":"inactive"}
{"gene":"grsm (granny smith)","dsRNA no.":1,"calcium signal, replicate 1":104,"calcium signal, replicate 2":88.1,"outcome":"inactive"}
{"gene":"grsm (granny smith)","dsRNA no.":2,"calcium signal, replicate 1":97.4,"calcium signal, replicate 2":102,"outcome":"inactive"}
{"gene":"CG16888","dsRNA no.":1,"calcium signal, replicate 1":128,"calcium signal, replicate 2":145,"outcome":"inactive"}
{"gene":"CG14190","dsRNA no.":1,"calcium signal, replicate 1":82.5,"calcium signal, replicate 2":108,"outcome":"inactive"}
{"gene":"REPTOR (Repressed by TOR)","dsRNA no.":1,"calcium signal, replicate 1":168,"calcium signal, replicate 2":183,"outcome":"inactive"}
{"gene":"Unc-76 (Uncoordinated 76)","dsRNA no.":1,"calcium signal, replicate 1":116,"calcium signal, replicate 2":132,"outcome":"inactive"}
{"gene":"Unc-76 (Uncoordinated 76)","dsRNA no.":2,"calcium signal, replicate 1":108,"calcium signal, replicate 2":126,"outcome":"inactive"}
